Source: patent US6310243A, “Iodinated x-ray contrast media” (Nycomed Imaging AS, priority 1994, dated 2001)
At least one compound was matched to its structure with a doubt left.

Experiment: Viscosity in aqueous solution at 20° C.
Type: physicochemical
Conditions: 384 mgI/ml
Procedure: Table 2 also gives calculated value for viscosity in mPas for concentration of 400 mg I/ml and 300 mg I/ml (at 20° C.).

CC(O)C(=O)Nc1c(I)c(CO)c(I)c(N(CCO)C(=O)C(C)O)c1I (stereo not shown) [Example 9, N,N'-Bis(2-hydroxypropionyl)-N-(2-hydroxyethyl)-3,5-diamino-2,4,6-triiodobenzylalcohol]
Viscosity 20° C.: 18 mPas
